The values that follow come from publication PMC12624041.

Amino acid sequences for entries named in this document (tags omitted).
UniProt Q9H361: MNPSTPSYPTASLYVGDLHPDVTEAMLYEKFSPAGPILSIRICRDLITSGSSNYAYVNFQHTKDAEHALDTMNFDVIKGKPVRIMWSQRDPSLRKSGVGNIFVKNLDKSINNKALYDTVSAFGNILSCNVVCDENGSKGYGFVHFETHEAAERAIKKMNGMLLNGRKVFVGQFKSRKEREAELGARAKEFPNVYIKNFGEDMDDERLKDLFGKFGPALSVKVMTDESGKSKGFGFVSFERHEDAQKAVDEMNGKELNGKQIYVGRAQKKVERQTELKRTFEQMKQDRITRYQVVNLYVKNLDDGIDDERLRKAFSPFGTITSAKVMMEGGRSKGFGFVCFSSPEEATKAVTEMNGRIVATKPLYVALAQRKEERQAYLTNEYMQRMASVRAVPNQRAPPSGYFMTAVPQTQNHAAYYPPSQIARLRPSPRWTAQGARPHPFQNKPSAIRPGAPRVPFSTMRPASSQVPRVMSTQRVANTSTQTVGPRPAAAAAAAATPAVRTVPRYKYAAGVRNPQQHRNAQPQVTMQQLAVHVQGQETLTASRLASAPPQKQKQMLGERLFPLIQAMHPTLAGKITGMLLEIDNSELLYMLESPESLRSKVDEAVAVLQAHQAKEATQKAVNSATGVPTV
UniProt O95832: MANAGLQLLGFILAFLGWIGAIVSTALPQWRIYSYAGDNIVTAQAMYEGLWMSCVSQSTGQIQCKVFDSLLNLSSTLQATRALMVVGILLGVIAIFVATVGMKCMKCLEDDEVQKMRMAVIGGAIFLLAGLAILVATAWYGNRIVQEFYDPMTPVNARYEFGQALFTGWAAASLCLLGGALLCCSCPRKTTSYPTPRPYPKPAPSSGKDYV

This test deals with PABPC3 (UniProt Q9H361). In words: co-IP; cells transfected with the indicated plasmids, harvested 48 h post-transfection, lysed by sonication in HPPO buffer; anti-FlagM2 antibody 1 h at 4 °C, then protein G PLUS-Agarose beads overnight at 4 °C; western blot. (In general: Immunoblotting shows a protein as a band on a membrane.)

No constants are given. Whether binding was seen depends on the method and setting. In cells and extracts the contact can be indirect.

On to CLDN1 (from UniProt O95832 1-211), for which the binding entry is “no binding”.
